Measured values: PubChem BioAssay AID328 (DTP/NCI, 2004)
The list is a part of this screen's results and no random one: it gathers tests that were run many times, whatever their T/C, doses with no T/C, and many T/C values between a quarter and a half above the control. Further doses and runs are listed elsewhere. T/C gives the treated animals as a percentage of the vehicle group. Some entries give survivors of the animals treated and no T/C: the source holds a T/C of zero for them, seemingly a mark for toxic or unscored doses. Some doses without a T/C left all or most animals alive at the check, yet need not have been tolerated: the source hardly ever lists a survival T/C far under the control, and the zero likely stands for such cases as well. Counts of survivors are from the toxicity check (mostly the fifth day) where no day follows; animals may have died later. Schedule codes are those of the source, read here as Q, the interval in days (D) or hours (H), X, the number of doses. Some doses were run more than once; their values stand side by side, smallest first. Where survival is the endpoint, the PubChem record calls one and a half times the control and up active, and a quarter to a half above the control has no call in these data; cut-offs in other NCI protocols can differ. Some T/C values carry the count of animals alive at the toxicity check (mostly the fifth day); without a count, all were alive then.

Tested on: BDF1 mice, P388 leukemia ip, median survival T/C
Experiment: NCI In Vivo Anticancer Drug Screen. Data for tumor model P388 Leukemia (intraperitoneal) in B6D2F1 (BDF1) mice
Details: T/C endpoint: median survival time, higher T/C = longer survival
How it was run: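 Vehicle-dosed animals serve as the reference; survival of compound-dosed, tumour-implanted mice is divided by it.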

[1] = dose: 50.0 mg/kg/injection, schedule: Q01DX009 (ip), vehicle: saline with Tween-80
[2] = dose: 100.0 mg/kg/injection, schedule: Q01DX009 (ip), vehicle: saline with Tween-80
[3] = dose: 200.0 mg/kg/injection, schedule: Q01DX009 (ip), vehicle: saline with Tween-80
[4] = dose: 200.0 mg/kg/injection, schedule: Q01DX009 (ip), vehicle: saline
[5] = dose: 400.0 mg/kg/injection, schedule: Q01DX009 (ip), vehicle: saline with Tween-80
[6] = dose: 100.0 mg/kg/injection, schedule: Q01DX009 (ip), vehicle: saline
[7] = dose: 400.0 mg/kg/injection, schedule: Q04DX003 (ip), vehicle: saline

## S=C(NC12CC3CC(CC(C3)C1)C2)[NH][Sn]([c]1ccccc1)([c]1ccccc1)[c]1ccccc1
[1]
  survivor count: 0 of 6
[2]
  survivor count: 0 of 6
[3]
  survivor count: 0 of 6

## CC1(C)N=C(N)N=C(N)N1c1ccc(F)cc1
dose: 100.0 mg/kg/injection, schedule: Q01DX005 (ip), vehicle: Klucel (hydroxypropylcellulose) (HPC)
  survivor count: 2 of 6
dose: 200.0 mg/kg/injection, schedule: Q01DX005 (ip), vehicle: Klucel (hydroxypropylcellulose) (HPC)
  survivor count: 0 of 6

## [N-]=[N+]=C1C=C(c2ccccc2)N=C1c1ccccc1
[4]
  survivor count: 4 of 6

## O=c1c(N=Nc2ccccc2)c[nH]n1-c1ccccc1
dose: 125.0 mg/kg/injection, schedule: Q01DX009 (ip), vehicle: saline with Tween-80
  survivor count: 6 of 7

## C1CSCCSCCCSCCSC1
[3]
  T/C: 130 % of control

## C=CCN(CC=C)c1ncnc2[nH]ncc12
[3]
  survivor count: 4 of 6
[5]
  survivor count: 4 of 6

## S=c1nc[nH]c2c1ncn2C1CCCO1 (stereo not drawn)
[3]
  survivor count: 6 of 6

## Clc1ccc(-c2nc3ncccn3n2)cc1
[2]
  survivor count: 6 of 6

## Nc1ccc(/C=C2\C=Cc3ccccc32)cc1
dose: 75.0 mg/kg/injection, schedule: Q01DX009 (ip), vehicle: saline with Tween-80
  survivor count: 6 of 6

## O=C1c2cccc3cc([N+](=O)[O-])cc(c23)C(=O)N1CCN1CCCC1
dose: 25.0 mg/kg/injection, schedule: Q01DX009 (ip), vehicle: saline with Tween-80
  T/C: 132 % of control

## COC12CC(=O)C(C(C)=O)=C(O)C1(C)c1c(OC(C)=O)c(C)c(O)c(C(C)=O)c1O2 (stereo not drawn)
dose: 12.5 mg/kg/injection, schedule: Q01DX009 (ip), vehicle: gum acacia
  T/C: 133 % of control [4 of 6 alive]
dose: 25.0 mg/kg/injection, schedule: Q01DX009 (ip), vehicle: gum acacia
  T/C: 132 % of control [5 of 6 alive]
dose: 50.0 mg/kg/injection, schedule: Q01DX009 (ip), vehicle: gum acacia
  survivor count: 5 of 6
dose: 100.0 mg/kg/injection, schedule: Q01DX009 (ip), vehicle: gum acacia
  survivor count: 1 of 6

## CN(C)CCCOC(=O)CC(C)(C)C
dose: 200.0 mg/kg/injection, schedule: Q01DX005 (ip), vehicle: water
  survivor count: 0 of 4
dose: 400.0 mg/kg/injection, schedule: Q01DX005 (ip), vehicle: water
  survivor count: 2 of 4

## Nc1nc(=O)n(CC(=O)c2ccco2)cc1F
[4]
  survivor count: 3 of 6
dose: 400.0 mg/kg/injection, schedule: Q01DX009 (ip), vehicle: saline
  survivor count: 0 of 6

## CCOC(=O)c1[nH]c(C)nc1/N=N/N(C)C
dose: 50.0 mg/kg/injection, schedule: Q01DX009 (ip), vehicle: saline
  T/C: 131 % of control
[6]
  T/C: 127 and 133 % of control

## CC[N+](CC)(CC)CCCCCCCCCC[N+](CC)(CC)CC
dose: 0.5 mg/kg/injection, schedule: Q01DX009 (ip), vehicle: water
  survivor count: 6 of 6
dose: 2.0 mg/kg/injection, schedule: Q01DX009 (ip), vehicle: water
  survivor count: 0 of 6
dose: 4.0 mg/kg/injection, schedule: Q01DX009 (ip), vehicle: water
  survivor count: 0 of 6

## O=C(Nc1cccc(C2=NCCCN2)c1)Nc1ccc(NC(=O)Nc2cccc(C3=NCCCN3)c2)c(Cl)c1
dose: 7.0 mg/kg/injection, schedule: Q04DX003 (ip), vehicle: saline with Tween-80
  T/C: 139 % of control
dose: 40.0 mg/kg/injection, schedule: Q01DX009 (ip), vehicle: saline with Tween-80
  survivor count: 3 of 6

## CCCC(C1=CC(C)(C)c2ccccc2C1=O)c1ccc(Br)cc1 (stereo not drawn)
dose: 100.0 mg/kg/injection, schedule: Q01DX009 (ip), vehicle: Klucel (hydroxypropylcellulose) (HPC)
  T/C: 125 % of control
dose: 400.0 mg/kg/injection, schedule: Q01DX009 (ip), vehicle: Klucel (hydroxypropylcellulose) (HPC)
  T/C: 135 % of control

## COC(=O)[C@@]12OC[C@]34[C@H]([C@@H](O)[C@@H]1O)[C@@]1(C)[C@H](O)C(=O)C=C(C)[C@@H]1C[C@H]3OC(=O)C(OC(C)=O)[C@@H]24 (stereo partly drawn)
dose: 125.0 micrograms/kg/injection, schedule: Q01DX009 (ip), vehicle: saline + alcohol
  T/C: 127 % of control
dose: 250.0 micrograms/kg/injection, schedule: Q01DX009 (ip), vehicle: saline + alcohol
  T/C: 131 % of control
dose: 500.0 micrograms/kg/injection, schedule: Q01DX009 (ip), vehicle: saline + alcohol
  T/C: 136 % of control [5 of 6 alive]
dose: 1000.0 micrograms/kg/injection, schedule: Q01DX009 (ip), vehicle: saline + alcohol
  T/C: 140 % of control [5 of 6 alive]
dose: 2000.0 micrograms/kg/injection, schedule: Q01DX009 (ip), vehicle: saline + alcohol
  survivor count: 3 of 6
dose: 4000.0 micrograms/kg/injection, schedule: Q01DX009 (ip), vehicle: saline + alcohol
  survivor count: 0 of 6

## CCOc1ccc(NC(=O)OCCN2CCN(CCc3ccccc3)C(C)C2)cc1 (stereo not drawn)
[3]
  survivor count: 0 of 6

## CN=C(NC)c1ccc(NC(=O)c2ccc(C(=O)Nc3ccc(C(=NC)NC)cc3)cc2)cc1
[1]
  survivor count: 6 of 6
[2]
  survivor count: 6 of 6
[3]
  survivor count: 2 of 6
[7]
  survivor count: 6 of 6

## CCNCc1cc(Nc2cc(C)nc(/N=C(\N)Nc3ccc(Cl)c(Cl)c3)n2)ccc1OC
dose: 50.0 mg/kg/injection, schedule: Q04DX003 (ip), vehicle: Klucel (hydroxypropylcellulose) (HPC)
  T/C: 131 % of control
dose: 120.0 mg/kg/injection, schedule: Q04DX003 (ip), vehicle: Klucel (hydroxypropylcellulose) (HPC)
  survivor count: 0 of 6

## COCOS(C)(=O)=O
[7]
  survivor count: 0 of 6

## O=N[O-].O=N[O-].O=N[O-].[Co+3].[NH-]CC[N-]CC[NH-]
[2]
  survivor count: 0 of 6
[3]
  survivor count: 0 of 6

## COc1cc2c(cc1OC)C1CCN3C(=O)CCC3N1CC2 (stereo not drawn)
[2]
  survivor count: 6 of 6

## CCCN([Si](C)(C)C)[Si](C)(C)C
dose: 400.0 mg/kg/injection, schedule: Q04DX003 (ip), vehicle: saline with Tween-80
  survivor count: 5 of 6

## Cc1cc(N2CCOCC2)nc(N2CCOCC2)c1C#N
dose: 50.0 mg/kg/injection, schedule: Q01DX005 (ip), vehicle: saline with Tween-80
  survivor count: 4 of 5

## CC1(O)Cn2c(nc3nccnc32)S1 (stereo not drawn)
[6]
  survivor count: 4 of 6
[4]
  survivor count: 0 of 6
dose: 200.0 mg/kg/injection, schedule: Q04DX003 (ip), vehicle: saline
  survivor count: 6 of 6
[7]
  survivor count: 0 of 6

## Clc1ccccc1-c1ncc2cnccn12
dose: 3.12 mg/kg/injection, schedule: Q01DX009 (ip), vehicle: saline with Tween-80
  survivor count: 4 of 6 and 6 of 6
dose: 200.0 mg/kg/injection, schedule: Q04DX003 (ip), vehicle: saline with Tween-80
  survivor count: 5 of 6

## O=C1NC(=O)C(F)(F)C(O)N1 (stereo not drawn)
dose: 18.0 mg/kg/injection, schedule: Q01DX009 (ip), vehicle: saline
  T/C: 140 % of control

## O=C(O)C(=O)c1ccc(-c2ccccc2)cc1
dose: 225.0 mg/kg/injection, schedule: Q01DX009 (ip), vehicle: saline with Tween-80
  survivor count: 2 of 6

## O=C1C=C(Nc2ccc(O)cc2)c2ccccc2C1=O
dose: 35.0 mg/kg/injection, schedule: Q01DX009 (ip), vehicle: saline with Tween-80
  T/C: 127 % of control
dose: 55.0 mg/kg/injection, schedule: Q01DX009 (ip), vehicle: saline with Tween-80
  survivor count: 6 of 6
dose: 80.0 mg/kg/injection, schedule: Q01DX009 (ip), vehicle: saline with Tween-80
  survivor count: 4 of 6

## O=[N+]([O-])c1cc([N+](=O)[O-])c(NN(c2ccc(Cl)cc2)c2ccc(Cl)cc2)c([N+](=O)[O-])c1
dose: 200.0 mg/kg/injection, schedule: Q01DX009 (ip), vehicle: Klucel (hydroxypropylcellulose) (HPC)
  survivor count: 4 of 6
dose: 400.0 mg/kg/injection, schedule: Q04DX003 (ip), vehicle: Klucel (hydroxypropylcellulose) (HPC)
  survivor count: 2 of 6

## S=C(N=Nc1ccccc1)NNc1ccccc1
[2]
  survivor count: 6 of 6
[3]
  survivor count: 5 of 6
[5]
  survivor count: 2 of 6

## OC(Cc1cnc2ccccc2c1)(c1ccccc1)c1ccccc1
dose: 100.0 mg/kg/injection, schedule: Q04DX002 (ip), vehicle: saline with Tween-80
  T/C: 140 % of control

## O=C(/C=C/c1ccccc1)N1CCOCC1
dose: 25.0 mg/kg/injection, schedule: Q04DX003 (ip), vehicle: saline
  survivor count: 6 of 6
